Test results: article PMC5219700
No constants are given. Whether binding was seen depends on the method and setting. Binding seen in cells or lysates may run through a third protein. Some results given as binding are weak or reduced against the parent protein; the word gives no strength.

By UniProt entry, the sequences of proteins in these tests, tags left out.
UniProt P49815: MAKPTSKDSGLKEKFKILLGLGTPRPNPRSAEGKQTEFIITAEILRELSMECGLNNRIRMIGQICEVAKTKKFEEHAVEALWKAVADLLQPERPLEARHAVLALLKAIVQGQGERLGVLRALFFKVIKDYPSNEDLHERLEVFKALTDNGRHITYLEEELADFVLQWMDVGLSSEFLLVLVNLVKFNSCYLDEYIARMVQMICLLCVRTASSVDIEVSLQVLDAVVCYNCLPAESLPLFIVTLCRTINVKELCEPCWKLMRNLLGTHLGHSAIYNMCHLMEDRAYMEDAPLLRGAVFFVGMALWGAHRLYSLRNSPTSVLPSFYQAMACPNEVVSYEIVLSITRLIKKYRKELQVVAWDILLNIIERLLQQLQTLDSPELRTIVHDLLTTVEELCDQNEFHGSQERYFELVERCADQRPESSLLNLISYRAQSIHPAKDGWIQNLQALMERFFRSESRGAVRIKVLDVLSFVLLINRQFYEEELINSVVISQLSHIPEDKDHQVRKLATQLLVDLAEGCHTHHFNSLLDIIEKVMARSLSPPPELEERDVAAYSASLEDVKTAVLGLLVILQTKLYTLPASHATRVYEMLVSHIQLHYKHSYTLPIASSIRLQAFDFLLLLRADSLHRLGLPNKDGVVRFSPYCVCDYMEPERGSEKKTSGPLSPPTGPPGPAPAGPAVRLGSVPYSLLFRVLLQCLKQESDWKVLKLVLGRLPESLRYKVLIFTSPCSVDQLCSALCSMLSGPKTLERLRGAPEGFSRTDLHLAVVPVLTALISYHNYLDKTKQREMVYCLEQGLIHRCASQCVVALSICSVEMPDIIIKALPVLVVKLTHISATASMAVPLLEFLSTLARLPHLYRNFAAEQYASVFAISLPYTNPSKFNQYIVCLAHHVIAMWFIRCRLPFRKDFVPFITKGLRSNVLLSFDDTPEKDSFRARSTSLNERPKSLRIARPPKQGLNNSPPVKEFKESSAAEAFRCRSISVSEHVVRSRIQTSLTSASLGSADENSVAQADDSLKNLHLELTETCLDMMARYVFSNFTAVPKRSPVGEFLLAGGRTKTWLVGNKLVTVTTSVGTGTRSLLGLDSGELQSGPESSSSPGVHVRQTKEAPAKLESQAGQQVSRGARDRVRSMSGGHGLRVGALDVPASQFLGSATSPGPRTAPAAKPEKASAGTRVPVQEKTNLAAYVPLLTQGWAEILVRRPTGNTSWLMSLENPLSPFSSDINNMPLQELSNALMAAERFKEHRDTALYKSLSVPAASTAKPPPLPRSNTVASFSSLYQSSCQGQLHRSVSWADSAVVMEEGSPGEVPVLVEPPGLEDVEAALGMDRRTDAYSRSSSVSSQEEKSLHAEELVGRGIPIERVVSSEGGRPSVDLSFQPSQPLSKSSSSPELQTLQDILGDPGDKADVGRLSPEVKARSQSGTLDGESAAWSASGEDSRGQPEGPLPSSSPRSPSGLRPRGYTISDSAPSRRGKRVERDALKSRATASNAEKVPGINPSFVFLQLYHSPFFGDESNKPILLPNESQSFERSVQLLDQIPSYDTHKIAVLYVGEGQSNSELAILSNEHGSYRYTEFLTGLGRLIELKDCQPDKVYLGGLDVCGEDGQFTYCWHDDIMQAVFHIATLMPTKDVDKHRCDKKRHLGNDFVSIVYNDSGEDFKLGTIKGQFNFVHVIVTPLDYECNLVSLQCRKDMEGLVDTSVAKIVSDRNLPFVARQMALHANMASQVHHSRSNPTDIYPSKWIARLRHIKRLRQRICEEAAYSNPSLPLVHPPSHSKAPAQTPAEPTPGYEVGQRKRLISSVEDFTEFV

Target: tuberous sclerosis complex 2 (human (endogenous in Rh30)) (UniProt P49815)
Assay: co-IP; serum-starved Rh30 cells exposed to CPT for 2 h, then IGF-1 (10 ng/mL) for 1 h; lysed in cold NP40 lysis buffer; rabbit anti-TSC2 antibody plus protein A/G agarose overnight at 4 C; four washes with NP40 lysis buffer; western blot for TSC1

B1: TSC1 (protein, UniProt Q92574 1-1164)
chain: MAQQANVGELLAMLDSPMLGVRDDVTAVFKENLNSDRGPMLVNTLVDYYLETSSQPALHILTTLQEPHDKHLLDRINEYVGKAATRLSILSLLGHVIRLQPSWKHKLSQAPLLPSLLKCLKMDTDVVVLTTGVLVLITMLPMIPQSGKQHLLDFFDIFGRLSSWCLKKPGHVAEVYLVHLHASVYALFHRLYGMYPCNFVSFLRSHYSMKENLETFEEVVKPMMEHVRIHPELVTGSKDHELDPRRWKRLETHDVVIECAKISLDPTEASYEDGYSVSHQISARFPHRSADVTTSPYADTQNSYGCATSTPYSTSRLMLLNMPGQLPQTLSSPSTRLITEPPQATLWSPSMVCGMTTPPTSPGNVPPDLSHPYSKVFGTTAGGKGTPLGTPATSPPPAPLCHSDDYVHISLPQATVTPPRKEERMDSARPCLHRQHHLLNDRGSEEPPGSKGSVTLSDLPGFLGDLASEEDSIEKDKEEAAISRELSEITTAEAEPVVPRGGFDSPFYRDSLPGSQRKTHSAASSSQGASVNPEPLHSSLDKLGPDTPKQAFTPIDLPCGSADESPAGDRECQTSLETSIFTPSPCKIPPPTRVGFGSGQPPPYDHLFEVALPKTAHHFVIRKTEELLKKAKGNTEEDGVPSTSPMEVLDRLIQQGADAHSKELNKLPLPSKSVDWTHFGGSPPSDEIRTLRDQLLLLHNQLLYERFKRQQHALRNRRLLRKVIKAAALEEHNAAMKDQLKLQEKDIQMWKVSLQKEQARYNQLQEQRDTMVTKLHSQIRQLQHDREEFYNQSQELQTKLEDCRNMIAELRIELKKANNKVCHTELLLSQVSQKLSNSESVQQQMEFLNRQLLVLGEVNELYLEQLQNKHSDTTKEVEMMKAAYRKELEKNRSHVLQQTQRLDTSQKRILELESHLAKKDHLLLEQKKYLEDVKLQARGQLQAAESRYEAQKRITQVFELEILDLYGRLEKDGLLKKLEEEKAEAAEAAEERLDCCNDGCSDSMVGHNEEASGHNGETKTPRPSSARGSSGSRGGGGSSSSSSELSTPEKPPHQRAGPFSSRWETTMGEASASIPTTVGSLPSSKSFLGMKARELFRNKSESQCDEDGMTSSLSESLKTELGKDLGVEAKIPLNLDGPHPSPPTPDSVGQLHIMDYNETHHEHS
In the case of B1, the binding is reported as “binds”.
